The comparison behind a weaker result is the experiment's own reference, which may not be listed here. Where a protein sequence is shown, tags need not be part of it.
Molecular target: T1, ArdC (UniProt Q6I6B2)
T1 sequence (looked up): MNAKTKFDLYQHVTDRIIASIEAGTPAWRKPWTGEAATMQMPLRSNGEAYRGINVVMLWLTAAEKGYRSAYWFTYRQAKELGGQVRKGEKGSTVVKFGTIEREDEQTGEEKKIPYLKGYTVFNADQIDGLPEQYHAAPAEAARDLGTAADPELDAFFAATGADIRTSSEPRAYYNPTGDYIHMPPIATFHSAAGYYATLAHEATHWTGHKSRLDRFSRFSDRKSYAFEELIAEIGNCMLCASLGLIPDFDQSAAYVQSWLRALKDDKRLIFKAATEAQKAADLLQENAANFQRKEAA
Experiment: EMSA
Details: 0-1 uM ArdC, 50 nM DNA, EMSA: 50 mM NaCl, 25 mM Tris-HCl pH 7.5, 0.5 mM EDTA, room temperature 30 min, 10% native PAGE in cold 1x TBE, recombinant protein, residues 22-318, label: 6FAM (5' of strand 1)

TACGCTCTTGGGCGCGCTGAATATGAGGTCAAGGCCGATGCGCTC (double strand) [Fluor-T87I2 + T87I1 (45 bp duplex)]
binding result: binds more weakly
